Measured values reported in patent EP2601963B1, “N-ISOVALEROYL-L-GLUTAMYL-L-TRYPTOPHAN AS AN AGENT INHIBITING THE FORMATION OF ULCERS IN THE STOMACH AND THE DUODENUM” (Obshestvo S Ogranichennoj Otvetstvennostju "CytoNIR", priority 2010, dated 2015).

Legend:
Assay type in all cases: in vivo, male Wistar rats
[1] = Water-immersion stress model: weight of organs
Protocol: (§1) Intensity of changes caused by stressors in the internal organs of the animals was evaluated by the relative weight changes of the adrenal glands, thymus, and spleen calculated as a ratio of the organ's weight to the body weight of the animal multiplied by 100.

[2] = Indomethacin-induced ulcer model, preventive: weight of organs
Protocol: as §1
The efficacy of the course of preventive treatment with the claimed composition was evaluated 24 hrs. post indomethacin administration. The study was conducted as in Example 1.

[3] = Indomethacin-induced ulcer model, therapeutic: weight of organs; conditions: treatment 5 days after Indomethacin
Protocol: as §1
2 ml/kg of the ulcerogenic dose of indomethacin equal to 30 mg/kg was administered intraperitoneally. The treatment started 24 hrs. post indomethacin administration and continued for 5 days. The animals in the experimental groups received N-isovaleroyl-L-glutamyl-L-tryptophan or the comparator drug Sucralfate, and the control group received distilled water.

N-isovaleroyl-L-glutamyl-L-tryptophan [VGT preparation]
Animal Wt. ([1]; 0.1 mkg/kg + stress): 236 ± 7 g
Animal Wt. ([1]; 10.0 mkg/kg + stress): 239 ± 6 g
Wt. of the Animals ([2]; 0.1 mkg/kg + Indomethacin 20 mg/kg): 219 ± 7 g
Wt. of the Animals ([2]; 10 mkg/kg + Indomethacin 20 mg/kg): 216 ± 7 g
Wt. of the Animals ([3]; 0.1 mkg/kg): 217 ± 9 g
Wt. of the Animals ([3]; 10.0 mkg/kg): 224 ± 16 g

aluminum complex of beta-D-fructofuranosyl-alpha-D-glucopyranoside octakis (hydrosulfate) [Sucralfate]
Wt. of the Animals ([2]; 200 mg/kg + Indomethacin 20 mg/kg): 235 ± 9 g
